Reference: the supplement of paper PMC5949888
Most values lie at the floor of the assay. Slopes are relative: functional sequences can read slightly below zero.

Tested on: Saccharomyces cerevisiae PS128 hsf1 delta, HSF1(1-493) fusion
Test: growth estimate (transactivation domain function in HSF1 fusion, heat-shock survival) (a.u. (slope of normalised read count over time)); higher = stronger growth at 37°C, i.e. more transactivation activity
Settings: library: random library

| Substance | growth estimate |
| --- | --- |
| TNNRVPVSALLTSCRRKDDV | < -0.25 |
| LTPD | < -0.25 |
| NVIVILRNEYDNCLR | < -0.25 |
| DSTTTIAWALKPRTTRRSLP | < -0.25 |
| RGTPVLVFLTPRAIPFTNLP | < -0.25 |
| RCARAGGKLFDRSE | < -0.25 |
| DIRDVRPFASLVIQNRI | < -0.25 |
| RIS | < -0.25 |
| EDGLGSTVTPCPLLPLAPCA | < -0.25 |
| LVSTRTSNVSHATSVS | < -0.25 |
| RYDRRMD | < -0.25 |
| GAPNAGKN | < -0.25 |
| KFLLSFAINNRES | < -0.25 |
| LGTNDRSVGVIAFGRVPPSN | < -0.25 |
| LIGGQHRG | < -0.25 |
| TGIIDKGIRICERV | < -0.25 |
| DLSVHPGARRSSGRPDFNFG | < -0.25 |
| YTEIYH | < -0.25 |
| LYEFTALERRYSGDASDDAC | < -0.25 |
| ALGTAEVGAPPSLRTDPPCC | < -0.25 |
| SLVATKPNAPRI | < -0.25 |
| LCKTKQ | < -0.25 |
| TVEDAKHFDTHEAIRTWLSQ | < -0.25 |
| ALEEG | < -0.25 |
| GGERSMRHNVTAIYECALLT | < -0.25 |

As entered above:
In growth estimate, DLSVHPGARRSSGRPDFNFG reads < -0.25
In growth estimate, TVEDAKHFDTHEAIRTWLSQ reads < -0.25
In growth estimate, TGIIDKGIRICERV reads < -0.25
In growth estimate, GGERSMRHNVTAIYECALLT reads < -0.25
In growth estimate, NVIVILRNEYDNCLR reads < -0.25

Following part:

| Substance | growth estimate |
| --- | --- |
| RQGTSASRRGFADYGVPIRY | -0.229 |
| SCRRELGG | < -0.25 |
| NVTTQNLKTPTLSFLEREEL | < -0.25 |
| SNVGVYFRVEGDANSTVEIK | < -0.25 |
| AANGEIGSYADVRLPWRRPN | < -0.25 |
| RLNVRRLRINFTSAHSPFSL | < -0.25 |
| GSIFEASARRRCAFESDTAA | < -0.25 |
| RVT | < -0.25 |
| YPGSLLRGAHTGSPRAPVHE | < -0.25 |
| RSHHAWC | < -0.25 |
| RGDDEVE | < -0.25 |
| LIARRSEVFLEVRGKSTVYT | < -0.25 |
| MLGCFAVPDSRSIKDGCPRL | < -0.25 |
| YGSEIARAVGPPRHSGK | < -0.25 |
| GTSETGNER | < -0.25 |
| KYIVRNVRTV | < -0.25 |
| VIGWTTTGWR | < -0.25 |
| DTTTSRS | < -0.25 |
| VRSGVGTPPVRSARD | -0.247 |
| HIGNGGVPGVLMRSGRCAVE | < -0.25 |
| TVGNHAWFGRSR | < -0.25 |
| IQTMSTRAPSGETAQCQLLL | < -0.25 |
| RLCYRPNGRPPRVHHVIFSM | < -0.25 |
| DRQLRIGVW | < -0.25 |
| TFTIQDTETEMFGCSVRKPL | < -0.25 |

| Substance | growth estimate |
| --- | --- |
| RIVVVSCGQTETHL | < -0.25 |
| GGDFGKDCDGVNLAIENRVY | -0.246 |
| AVLILPYPGNSMHRLMPSFS | < -0.25 |
| HVLVLCRPPVVSYGVVDLTV | -0.235 |
| TADI | < -0.25 |
| RIHRGKRIWGPTDI | < -0.25 |
| LAPQ | < -0.25 |
| VVGSLGRSKSGPNHTFNIWG | < -0.25 |
| VLRNRYAYFWT | < -0.25 |
| VWDFE | < -0.25 |
| LCSARHSSKQGCKGTLSSPK | < -0.25 |
| IATVPLRRTPECLFSDVTAL | < -0.25 |
| IIGVVNPWCLQQG | < -0.25 |
| TRRRSLDETGAQHYAHTRYR | < -0.25 |
| SLKMSVHSLFCNNKHVGGAA | < -0.25 |
| RVSGRLRSHMG | < -0.25 |
| SPRARHLWFNPTS | < -0.25 |
| VSARPIYSWRPHDLFRSADA | < -0.25 |
| QTKPLGSYGL | < -0.25 |
| LLSLTL | < -0.25 |
| GWSDTLLRICELRAAASGSP | < -0.25 |
| ILPTLSPSGIVGGQEAGVMW | < -0.25 |
| ASVIQQLR | < -0.25 |
| WVLRGVHSRFSPIH | < -0.25 |
| LSGLSG | < -0.25 |

| Substance | growth estimate |
| --- | --- |
| AAEDGNDLLIFLDTRRDRRT | < -0.25 |
| CASLERHLRFQSNPQTRRPS | -0.241 |
| WRKGLIPNPGQASMGASVTP | < -0.25 |
| LNSWCLRLPAVGVVNPLNPR | < -0.25 |
| GNSFLGFVRARP | < -0.25 |
| LQLFRLAWLLGTIYTRLSMY | < -0.25 |
| STSLRDPRFAGQLSDMFRLA | < -0.25 |
| YLASPHVTGSG | < -0.25 |
| RWRLMRVHSNAISADSTLN | < -0.25 |
| LEGAT | < -0.25 |
| PPLSSMSRSCVIRVGRA | < -0.25 |
| RVTAWHSLTVADKCAVAVCT | < -0.25 |
| KRLNHVPETRGNVRSG | < -0.25 |
| CKVLGSLYGYVLET | < -0.25 |
| CEI | < -0.25 |
| SRHPRNPRPMIFVYSARLIL | < -0.25 |
| ESYSTPYSYCVLLRCRYDGY | < -0.25 |
| FSMKPHTPRRMATFSAPAIM | < -0.25 |
| TDFSNILEPIHAIVVCGSRS | < -0.25 |
| RFEGVRFSG | < -0.25 |
| CADCIAPLQKEHS | < -0.25 |
| QRLLRDISQRRRMDYW | < -0.25 |
| LQASGRQIRSR | < -0.25 |
| HVYVHGTIETLVFSMADGDR | < -0.25 |
